# Results published in the supplement of paper PMC8728848.
# Some of the results follow.
# B1: TAL6-6LysM (Trichoderma atroviride) (protein)
# chain: AASKLGVPQPAQRDQVNCQLYAVQPNDNCIDISSKNNITYAQLLSWNPSLSSTCSNLASLNSSSICVSNPKGTFSISSNTVGATDIATTTAPVPSPTLDQTTSRCAKYYQVSDGDDCSHLTAQFAITLKDFIFLNSEVWQNCTNLELGYYYCVEPVGYISTYPGYLPTATTKPFNQTSATSLPYDGDPWARFSSNSSVIPIANGTRVDCYSYVYVKNLTENLFADCWNMASMYEITREELVLWNPSLGNDGSSGSNLSGAEASQVASSIAIPTTAPSSITTNLYTYPCTVAANISYCVALVSSTGALPTNTAPPGPHASGEISNCTAWFAPEAYDTCKSILDIFEMSFANFYKMNPSVGPDCSGLAVGTNYCVSTYPNGEDPNDDWDGDDSIPSISPTGIITPTPTQSGMVSNCNKFYDVHSNDGCSAIASSQHVDLSSLYKWNPAIKTDCSGLQASVYVCIGILTTSMSTTSKLPTTTSKPSTTSKPPTGITTPTPTQSGMVKNCNKFYDVHSGDGCSAIASSQKVNLSSFYLWNPAVKTDCSGLQASVFVCIGTLTTSMSTTTSKLPTTTSKPSTTSKPPTGIITPTPTQNGMVKNCNKFYDVHSGDGCSAIASSQKVNLSSFYLWNPAVKTDCSGLQASVFVCVGTATTTTAAGITTPTPTQSGMVSGCNKFYDVHAGDGCSAIASSQKIALSSLYKWNPAVKTDCSGLQASVYICIGVGNAAAARVTGAAASFLEQKLISEEDLNSAVDHHHHHH
# How the values were obtained:
# Test in all cases: glycan array binding signal (z-score within array); higher = stronger binding
# Details in all cases: glycan notation: IUPAC condensed, linker removed
# [1] = biological target: Fuc(a1-2)Gal6S(b1-3)GlcNAc6S
# Procedure, shortened: (§1)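 Glycan array binding is given as a within-array Z-score, which can be read as non-binding when negative. The arrays, 3228 of them, came from the Consortium for Functional Glycomics database and were retained only where the protein sequence was available. Z-scores were averaged across arrays of the same protein sequence at different concentrations or buffers and across linkers.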
# Fuc(a1-2)Gal6S(b1-4)Glc = biological target: Fuc(a1-2)Gal6S(b1-4)Glc
# Procedure, shortened: as §1
# [2] = biological target: Fuc(a1-2)Gal6S(b1-4)Glc6S
# Procedure, shortened: as §1
# Fuc(a1-2)[Gal(a1-3)]Gal = biological target: Fuc(a1-2)[Gal(a1-3)]Gal
# Procedure, shortened: as §1
# [3] = biological target: Fuc(a1-2)[Gal(a1-3)]Gal(b1-3)GalNAc
# Procedure, shortened: as §1
# [4] = biological target: Fuc(a1-2)[Gal(a1-3)]Gal(b1-3)GalNAc(b1-3)Gal(a1-4)Gal(b1-4)Glc
# Procedure, shortened: as §1
# [5] = biological target: Fuc(a1-2)[Gal(a1-3)]Gal(b1-3)GlcNAc
# Procedure, shortened: as §1
# [6] = biological target: Fuc(a1-2)[Gal(a1-3)]Gal(b1-3)GlcNAc(b1-2)Man(a1-3)[Fuc(a1-2)[Gal(a1-3)]Gal(b1-3)GlcNAc(b1-2)Man(a1-6)]Man(b1-4)GlcNAc(b1-4)GlcNAc
# Procedure, shortened: as §1
# [7] = biological target: Fuc(a1-2)[Gal(a1-3)]Gal(b1-3)GlcNAc(b1-2)Man(a1-3)[Fuc(a1-2)[Gal(a1-3)]Gal(b1-3)GlcNAc(b1-2)Man(a1-6)]Man(b1-4)GlcNAc(b1-4)[Fuc(a1-6)]GlcNAc
# Procedure, shortened: as §1
# [8] = biological target: Fuc(a1-2)[Gal(a1-3)]Gal(b1-3)GlcNAc(b1-3)GalNAc
# Procedure, shortened: as §1
# [9] = biological target: Fuc(a1-2)[Gal(a1-3)]Gal(b1-3)GlcNAc(b1-6)GalNAc
# Procedure, shortened: as §1
# [10] = biological target: Fuc(a1-2)[Gal(a1-3)]Gal(b1-4)Glc
# Procedure, shortened: as §1
# [11] = biological target: Fuc(a1-2)[Gal(a1-3)]Gal(b1-4)GlcNAc
# Procedure, shortened: as §1
# [12] = biological target: Fuc(a1-2)[Gal(a1-3)]Gal(b1-4)GlcNAc(b1-2)Man
# Procedure, shortened: as §1
# [13] = biological target: Fuc(a1-2)[Gal(a1-3)]Gal(b1-4)GlcNAc(b1-2)Man(a1-3)[Fuc(a1-2)[Gal(a1-3)]Gal(b1-4)GlcNAc(b1-2)Man(a1-6)]Man(b1-4)GlcNAc(b1-4)GlcNAc
# Procedure, shortened: as §1
# [14] = biological target: Fuc(a1-2)[Gal(a1-3)]Gal(b1-4)GlcNAc(b1-2)Man(a1-3)[Fuc(a1-2)[Gal(a1-3)]Gal(b1-4)GlcNAc(b1-2)Man(a1-6)]Man(b1-4)GlcNAc(b1-4)[Fuc(a1-6)]GlcNAc
# Procedure, shortened: as §1
# [15] = biological target: Fuc(a1-2)[Gal(a1-3)]Gal(b1-4)GlcNAc(b1-3)GalNAc
# Procedure, shortened: as §1
# [16] = biological target: Fuc(a1-2)[Gal(a1-3)]Gal(b1-4)GlcNAc(b1-3)[Fuc(a1-2)[Gal(a1-3)]Gal(b1-4)GlcNAc(b1-6)]GalNAc
# Procedure, shortened: as §1
# [17] = biological target: Fuc(a1-2)[Gal(a1-3)]Gal(b1-4)GlcNAc(b1-6)GalNAc
# Procedure, shortened: as §1
# [18] = biological target: Fuc(a1-2)[Gal(a1-3)]Gal(b1-4)[Fuc(a1-3)]Glc
# Procedure, shortened: as §1
# [19] = biological target: Fuc(a1-2)[Gal(a1-3)]Gal(b1-4)[Fuc(a1-3)]GlcNAc
# Procedure, shortened: as §1
# [20] = biological target: Fuc(a1-2)[Gal(a1-3)]Gal(b1-4)[Fuc(a1-3)]GlcNAc(b1-3)GalNAc
# Procedure, shortened: as §1
# [21] = biological target: Fuc(a1-2)[Gal(a1-4)]Gal(b1-4)GlcNAc
# Procedure, shortened: as §1
# [22] = biological target: Fuc(a1-2)[GalNAc(a1-3)]Gal
# Procedure, shortened: as §1
# [23] = biological target: Fuc(a1-2)[GalNAc(a1-3)]Gal(b1-3)GalNAc(a1-3)[Fuc(a1-2)]Gal(b1-4)GlcNAc
# Procedure, shortened: as §1
# [24] = biological target: Fuc(a1-2)[GalNAc(a1-3)]Gal(b1-3)GalNAc(b1-3)Gal(a1-4)Gal(b1-4)Glc
# Procedure, shortened: as §1
# [25] = biological target: Fuc(a1-2)[GalNAc(a1-3)]Gal(b1-3)GlcNAc
# Procedure, shortened: as §1
# [26] = biological target: Fuc(a1-2)[GalNAc(a1-3)]Gal(b1-3)GlcNAc(b1-2)Man(a1-3)[Fuc(a1-2)[GalNAc(a1-3)]Gal(b1-3)GlcNAc(b1-2)Man(a1-6)]Man(b1-4)GlcNAc(b1-4)GlcNAc
# Procedure, shortened: as §1
# [27] = biological target: Fuc(a1-2)[GalNAc(a1-3)]Gal(b1-3)GlcNAc(b1-2)Man(a1-3)[Fuc(a1-2)[GalNAc(a1-3)]Gal(b1-3)GlcNAc(b1-2)Man(a1-6)]Man(b1-4)GlcNAc(b1-4)[Fuc(a1-6)]GlcNAc
# Procedure, shortened: as §1
# [28] = biological target: Fuc(a1-2)[GalNAc(a1-3)]Gal(b1-3)GlcNAc(b1-3)GalNAc
# Procedure, shortened: as §1
# [29] = biological target: Fuc(a1-2)[GalNAc(a1-3)]Gal(b1-3)GlcNAc(b1-6)GalNAc
# Procedure, shortened: as §1
# [30] = biological target: Fuc(a1-2)[GalNAc(a1-3)]Gal(b1-4)Glc
# Procedure, shortened: as §1
# [31] = biological target: Fuc(a1-2)[GalNAc(a1-3)]Gal(b1-4)GlcNAc
# Procedure, shortened: as §1
# [32] = biological target: Fuc(a1-2)[GalNAc(a1-3)]Gal(b1-4)GlcNAc(b1-2)Man
# Procedure, shortened: as §1
# [33] = biological target: Fuc(a1-2)[GalNAc(a1-3)]Gal(b1-4)GlcNAc(b1-2)Man(a1-3)[Fuc(a1-2)[GalNAc(a1-3)]Gal(b1-4)GlcNAc(b1-2)Man(a1-6)]Man(b1-4)GlcNAc(b1-4)GlcNAc
# Procedure, shortened: as §1
# [34] = biological target: Fuc(a1-2)[GalNAc(a1-3)]Gal(b1-4)GlcNAc(b1-2)Man(a1-3)[Fuc(a1-2)[GalNAc(a1-3)]Gal(b1-4)GlcNAc(b1-2)Man(a1-6)]Man(b1-4)GlcNAc(b1-4)[Fuc(a1-6)]GlcNAc
# Procedure, shortened: as §1
# [35] = biological target: Fuc(a1-2)[GalNAc(a1-3)]Gal(b1-4)GlcNAc(b1-3)Gal(b1-4)GlcNAc
# Procedure, shortened: as §1
# [36] = biological target: Fuc(a1-2)[GalNAc(a1-3)]Gal(b1-4)GlcNAc(b1-3)Gal(b1-4)GlcNAc(b1-3)Gal(b1-4)GlcNAc
# Procedure, shortened: as §1
# [37] = biological target: Fuc(a1-2)[GalNAc(a1-3)]Gal(b1-4)GlcNAc(b1-3)GalNAc
# Procedure, shortened: as §1
# [38] = biological target: Fuc(a1-2)[GalNAc(a1-3)]Gal(b1-4)GlcNAc(b1-3)[Fuc(a1-2)[GalNAc(a1-3)]Gal(b1-4)GlcNAc(b1-6)]GalNAc
# Procedure, shortened: as §1
# [39] = biological target: Fuc(a1-2)[GalNAc(a1-3)]Gal(b1-4)GlcNAc(b1-6)GalNAc
# Procedure, shortened: as §1
# [40] = biological target: Fuc(a1-2)[GalNAc(a1-3)]Gal(b1-4)[Fuc(a1-3)]GlcNAc
# Procedure, shortened: as §1
# [41] = biological target: Fuc(a1-2)[GalNAc(a1-3)]Gal(b1-4)[Fuc(a1-3)]GlcNAc(b1-3)GalNAc
# Procedure, shortened: as §1
# [42] = biological target: Fuc(a1-2)[GalNAc(a1-4)]Gal(b1-4)GlcNAc
# Procedure, shortened: as §1
# [43] = biological target: Fuc(a1-2)[GalNAc(b1-3)]Gal
# Procedure, shortened: as §1
binder,measurement,setting,value
B1,glycan array binding signal (z-score),[1],1.45
same,glycan array binding signal (z-score),Fuc(a1-2)Gal6S(b1-4)Glc,-0.385
same,glycan array binding signal (z-score),[2],0.326
same,glycan array binding signal (z-score),Fuc(a1-2)[Gal(a1-3)]Gal,0.612
same,glycan array binding signal (z-score),[3],-0.805
same,glycan array binding signal (z-score),[4],0.209
same,glycan array binding signal (z-score),[5],1.38
same,glycan array binding signal (z-score),[6],-0.506
same,glycan array binding signal (z-score),[7],-1.23
same,glycan array binding signal (z-score),[8],-0.133
same,glycan array binding signal (z-score),[9],0.723
same,glycan array binding signal (z-score),[10],0.491
same,glycan array binding signal (z-score),[11],1.2
same,glycan array binding signal (z-score),[12],-0.907
same,glycan array binding signal (z-score),[13],0.478
same,glycan array binding signal (z-score),[14],1.7
same,glycan array binding signal (z-score),[15],-0.999
same,glycan array binding signal (z-score),[16],-0.724
same,glycan array binding signal (z-score),[17],-0.509
same,glycan array binding signal (z-score),[18],-0.694
same,glycan array binding signal (z-score),[19],-0.889
same,glycan array binding signal (z-score),[20],0.955
same,glycan array binding signal (z-score),[21],0.687
same,glycan array binding signal (z-score),[22],-0.757
same,glycan array binding signal (z-score),[23],-0.873
same,glycan array binding signal (z-score),[24],-0.404
same,glycan array binding signal (z-score),[25],0.347
same,glycan array binding signal (z-score),[26],-0.391
same,glycan array binding signal (z-score),[27],-1.06
same,glycan array binding signal (z-score),[28],0.204
same,glycan array binding signal (z-score),[29],1.12
same,glycan array binding signal (z-score),[30],-0.724
same,glycan array binding signal (z-score),[31],0.557
same,glycan array binding signal (z-score),[32],0.179
same,glycan array binding signal (z-score),[33],0.42
same,glycan array binding signal (z-score),[34],-2.02
same,glycan array binding signal (z-score),[35],-0.762
same,glycan array binding signal (z-score),[36],-0.144
same,glycan array binding signal (z-score),[37],-0.338
same,glycan array binding signal (z-score),[38],1.58
same,glycan array binding signal (z-score),[39],1.53
same,glycan array binding signal (z-score),[40],0.713
same,glycan array binding signal (z-score),[41],-0.108
same,glycan array binding signal (z-score),[42],-0.239
same,glycan array binding signal (z-score),[43],-0.198

# Reprinted from the entries so far (2 entries):
binder,measurement,setting,value
B1,glycan array binding signal (z-score),[3],-0.805
same,glycan array binding signal (z-score),[4],0.209
